At least one result comes from cells or an extract, where the contact may be indirect. For some assays here: A negative result means that nothing was seen under these conditions. For some assays here: Protein sequences can lack the tags named with them.
Experiments:
[1] = molecular target: T1, AUF-1 (hnRNP D), endogenous in HeLa S100 (UniProt Q14103); assay: competition with a labelled probe; details: AUF-1 cross-link not competed by increasing synthetic ARE RNA; data not shown; protein in an extract
T1 sequence (looked up, limits assumed): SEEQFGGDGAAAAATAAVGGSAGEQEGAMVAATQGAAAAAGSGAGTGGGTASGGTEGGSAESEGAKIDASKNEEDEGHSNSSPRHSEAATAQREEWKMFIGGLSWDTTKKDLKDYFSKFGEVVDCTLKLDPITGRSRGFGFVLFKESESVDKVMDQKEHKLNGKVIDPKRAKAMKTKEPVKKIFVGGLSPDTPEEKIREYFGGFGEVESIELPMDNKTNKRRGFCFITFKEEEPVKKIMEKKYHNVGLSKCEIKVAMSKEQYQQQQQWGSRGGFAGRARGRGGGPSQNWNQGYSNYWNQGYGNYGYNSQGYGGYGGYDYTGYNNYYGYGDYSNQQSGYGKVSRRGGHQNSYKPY

The chains behind the UniProt entries cited, without tags or fusion partners. Residues count along the entry.
UniProt Q15717, 2-326: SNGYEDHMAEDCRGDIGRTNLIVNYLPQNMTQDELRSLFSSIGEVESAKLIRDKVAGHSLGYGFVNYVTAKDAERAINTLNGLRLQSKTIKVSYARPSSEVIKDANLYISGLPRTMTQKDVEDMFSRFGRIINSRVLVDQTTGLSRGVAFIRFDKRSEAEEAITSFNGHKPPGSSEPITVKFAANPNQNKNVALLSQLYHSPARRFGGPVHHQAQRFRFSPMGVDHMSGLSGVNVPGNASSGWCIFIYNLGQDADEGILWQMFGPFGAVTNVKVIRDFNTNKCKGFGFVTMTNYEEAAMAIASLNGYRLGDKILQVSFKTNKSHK

[2] = molecular target: HuR (HuA, ELAV family), endogenous in HeLa S100 (UniProt Q15717); assay: competition with a labelled probe; details: 5 pm ARE competitor RNA competes HuR cross-linking to SVARE-A60; protein in an extract

AUUAUUUAUUAUUUAUUUAUUAUUUAUUUAUUUA [TNF-alpha ARE competitor RNA]
binding result [1]: no binding
binding result [2]: binds

— patent US20030232360
